Reference: article PMC10115800, “Two assembly modes for SIN3 histone deacetylase complexes” (Cell Discovery, 2023)
Results are given in words; binding and its absence hold for the method and conditions named. Binding seen in cells or lysates may run through a third protein. These calls come from enrichment with a bait or labelling near it, and not all partners need be listed. For some assays here: A no says only that the protein was not detected with the bait. Sequences can lack the tags named with a protein.

Key:
[1] = target: T1, Pst2 with C-terminal 3× Flag-tag (S. pombe, UniProt O13919 1-1075); experiment: affinity purification with mass spectrometry; Pst2-3×Flag as bait from S. pombe lysate (350 mM NaCl) on ANTI-FLAG M2 resin, FLAG peptide elution, glycerol gradient; SDS-PAGE bands analysed by LC-MS/MS
T1 construct: Pst2, Sin3 homolog of S. pombe, organising subunit of the SIN3S complex; all five domains (PAH1/2/3, HID, HCR) are resolved; also called Pst2-Flag; Sin3 isoform Pst2; source: endogenous locus tagged, S. pombe; purified (ANTI-FLAG M2 resin, glycerol gradient); not shown: 3× Flag, C-terminal, kept
T1 sequence (looked up): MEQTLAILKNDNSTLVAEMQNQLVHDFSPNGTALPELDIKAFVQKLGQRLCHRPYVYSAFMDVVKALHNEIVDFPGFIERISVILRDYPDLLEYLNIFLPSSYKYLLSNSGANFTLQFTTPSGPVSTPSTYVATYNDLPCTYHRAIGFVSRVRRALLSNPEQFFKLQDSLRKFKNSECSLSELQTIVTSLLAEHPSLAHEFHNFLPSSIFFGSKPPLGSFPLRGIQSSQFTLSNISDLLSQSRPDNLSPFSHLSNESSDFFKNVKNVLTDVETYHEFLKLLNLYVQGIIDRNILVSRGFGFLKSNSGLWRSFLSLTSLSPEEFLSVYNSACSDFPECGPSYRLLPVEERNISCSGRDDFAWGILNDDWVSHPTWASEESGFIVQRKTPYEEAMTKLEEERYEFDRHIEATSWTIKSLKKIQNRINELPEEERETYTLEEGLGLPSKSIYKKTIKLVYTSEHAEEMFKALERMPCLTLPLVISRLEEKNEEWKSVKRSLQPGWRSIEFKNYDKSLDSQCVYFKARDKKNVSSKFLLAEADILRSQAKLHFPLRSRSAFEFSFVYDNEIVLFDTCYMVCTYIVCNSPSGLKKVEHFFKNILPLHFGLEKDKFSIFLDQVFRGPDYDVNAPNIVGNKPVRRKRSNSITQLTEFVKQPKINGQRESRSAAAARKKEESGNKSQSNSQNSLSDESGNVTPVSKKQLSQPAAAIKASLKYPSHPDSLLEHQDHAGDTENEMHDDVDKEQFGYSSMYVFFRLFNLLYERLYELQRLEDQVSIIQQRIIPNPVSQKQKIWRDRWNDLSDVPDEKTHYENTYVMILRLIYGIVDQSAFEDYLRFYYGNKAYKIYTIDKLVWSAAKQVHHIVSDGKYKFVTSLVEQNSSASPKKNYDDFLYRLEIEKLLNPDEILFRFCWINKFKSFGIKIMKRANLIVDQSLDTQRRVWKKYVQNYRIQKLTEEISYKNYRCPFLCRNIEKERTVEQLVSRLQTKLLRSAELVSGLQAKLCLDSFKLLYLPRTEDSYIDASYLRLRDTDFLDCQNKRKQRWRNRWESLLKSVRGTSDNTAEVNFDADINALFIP

[2] = target: T2, Pst3 with C-terminal 3× Flag-tag (S. pombe, UniProt O74755 1-1154); experiment: affinity purification with mass spectrometry; Pst3-3×Flag as bait from S. pombe lysate (350 mM NaCl) on ANTI-FLAG M2 resin, FLAG peptide elution, glycerol gradient; SDS-PAGE bands analysed by LC-MS/MS
T2 construct: Pst3, Sin3 homolog of S. pombe, subunit of the SIN3L complex; PAH3, HID and HCR are resolved in the model; Endogenous protein; also called Pst3-Flag; Sin3 isoform Pst3; source: endogenous locus tagged, S. pombe; purified (ANTI-FLAG M2 resin, glycerol gradient); not shown: 3× Flag, C-terminal, kept
T2 sequence (looked up): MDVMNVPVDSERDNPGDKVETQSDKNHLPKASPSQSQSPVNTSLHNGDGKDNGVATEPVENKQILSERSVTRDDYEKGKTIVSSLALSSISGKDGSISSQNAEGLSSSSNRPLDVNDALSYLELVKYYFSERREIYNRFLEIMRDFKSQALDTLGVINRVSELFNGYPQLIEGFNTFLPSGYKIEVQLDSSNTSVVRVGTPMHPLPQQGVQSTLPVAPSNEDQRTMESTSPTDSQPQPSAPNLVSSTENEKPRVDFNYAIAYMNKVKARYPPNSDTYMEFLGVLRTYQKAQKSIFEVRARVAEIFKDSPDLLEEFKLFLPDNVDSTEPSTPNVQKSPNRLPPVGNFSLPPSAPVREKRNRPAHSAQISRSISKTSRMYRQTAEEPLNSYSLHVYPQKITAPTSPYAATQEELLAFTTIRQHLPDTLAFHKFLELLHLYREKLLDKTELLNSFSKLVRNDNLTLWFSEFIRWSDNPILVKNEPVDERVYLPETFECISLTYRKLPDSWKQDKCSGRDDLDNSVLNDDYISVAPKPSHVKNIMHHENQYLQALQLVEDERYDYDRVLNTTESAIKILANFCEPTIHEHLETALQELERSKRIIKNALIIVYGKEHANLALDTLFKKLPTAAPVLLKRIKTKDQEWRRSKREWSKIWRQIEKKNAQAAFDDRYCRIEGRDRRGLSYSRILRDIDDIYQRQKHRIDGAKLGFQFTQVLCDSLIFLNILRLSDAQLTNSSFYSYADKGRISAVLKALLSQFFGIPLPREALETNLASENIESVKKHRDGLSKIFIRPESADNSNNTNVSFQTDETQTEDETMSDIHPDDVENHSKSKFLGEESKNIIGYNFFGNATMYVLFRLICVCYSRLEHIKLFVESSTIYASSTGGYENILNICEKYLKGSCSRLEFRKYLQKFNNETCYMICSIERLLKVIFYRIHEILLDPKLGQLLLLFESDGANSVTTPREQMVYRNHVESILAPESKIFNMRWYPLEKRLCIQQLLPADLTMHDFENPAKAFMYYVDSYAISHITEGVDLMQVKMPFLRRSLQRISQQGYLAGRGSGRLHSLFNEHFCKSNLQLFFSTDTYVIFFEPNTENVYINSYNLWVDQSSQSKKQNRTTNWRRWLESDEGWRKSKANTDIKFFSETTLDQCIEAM

B1: Nrm1 (protein, UniProt O42913 1-342)
chain: MDRSMEPLTPSRLNTLGERPTNEVYEYGKGKNVQHLFPITPMQRPLGKENAAPGTISPIAVRSRNVRAVEIADENACEEPVLKIKSVSSTESEEEKESSTEIGEKQEKETHLEPKTPVQTNTNNNHLDDIQCCAKNLRLRLELAMYKVQVNQTFSPLQDLPIVAKTKLHNCPNSEPVTSIWNQRSLSSGKPPSLHLSGNRRLSMGSPTKSIYDQNGLTTPRPIGSDDLTHMYDPYTSPLRTPSRTLSRSSSHYLWVRHGKLTRSVSLLQHKTPRRIRPKSLSKSNSTPLKHLSAQKPNSNYYTGPPTPVSISNTPENIHPSSSEVRRIASHSKQFSDYGLIR
For B1, the binding [1] was “no binding” and the binding [2] was “binds”.
